{"source": "PubChem BioAssay AID1224827 (NIAID, 2016)", "aim": "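Confirm genes whose knock-down changes LPS-driven TNF promoter activity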 (follow-up of hits)", "cells": "RAW264.7 G9 mouse macrophage reporter clone", "reagents": "single siRNA against mouse genes, 100 nM siRNA", "timing": "siRNA for 2 days, then LPS about 16 h", "conditions": "bacterial lipopolysaccharide (LPS), 10 ng/ml, cells fixed after overnight (about 16 h) stimulation", "read-out": "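TNF promoter reporter red fluorescence in nuclei, background subtracted, normalised per plate and to non-targeting control siRNA, as z-scores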", "scale": "TNF reporter z-score, mean: higher = stronger Tnf promoter reporter signal", "call rule": "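An siRNA is called active when its mean z-score over replicates is at least +2 or at most -2; control wells get no call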", "note": "In all, the deposit lists about 3,800 reagents; below is a random part of them. Over the whole deposit, about 2,200 (57%) got an active call. 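Active means a strong reporter change in either direction; calls are per siRNA, not per gene; qiagen siRNAs gave weaker effects.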 The numbers tell different reagents against one gene apart. Not all columns of the deposit are shown."}
{"gene symbol": "Sh2d1a", "reagent no.": 1, "TNF reporter z-score, mean": 4.71, "Call": "active"}
{"gene symbol": "Sh2d1a", "reagent no.": 2, "TNF reporter z-score, mean": 1.93, "Call": "inactive"}
{"gene symbol": "Sh2d1a", "reagent no.": 3, "TNF reporter z-score, mean": -3.1, "Call": "active"}
{"gene symbol": "Sh2d1a", "reagent no.": 4, "TNF reporter z-score, mean": -1.25, "Call": "inactive"}
{"gene symbol": "Sh2d1a", "reagent no.": 5, "TNF reporter z-score, mean": -1.6, "Call": "inactive"}
{"gene symbol": "Sh2d1a", "reagent no.": 6, "TNF reporter z-score, mean": -2.33, "Call": "active"}
{"gene symbol": "Dock2", "reagent no.": 1, "TNF reporter z-score, mean": -2.77, "Call": "active"}
{"gene symbol": "Dock2", "reagent no.": 2, "TNF reporter z-score, mean": -3.65, "Call": "active"}
{"gene symbol": "Dock2", "reagent no.": 3, "TNF reporter z-score, mean": -4.08, "Call": "active"}
{"gene symbol": "Dock2", "reagent no.": 4, "TNF reporter z-score, mean": 2.32, "Call": "active"}
{"gene symbol": "Dock2", "reagent no.": 5, "TNF reporter z-score, mean": 1.53, "Call": "inactive"}
{"gene symbol": "Dock2", "reagent no.": 6, "TNF reporter z-score, mean": 0.0234, "Call": "inactive"}
{"gene symbol": "Mcoln2", "reagent no.": 1, "TNF reporter z-score, mean": -2.06, "Call": "active"}
{"gene symbol": "Mcoln2", "reagent no.": 2, "TNF reporter z-score, mean": -3.22, "Call": "active"}
{"gene symbol": "Mcoln2", "reagent no.": 3, "TNF reporter z-score, mean": -4.58, "Call": "active"}
{"gene symbol": "Mcoln2", "reagent no.": 4, "TNF reporter z-score, mean": 0.996, "Call": "inactive"}
{"gene symbol": "Mcoln2", "reagent no.": 5, "TNF reporter z-score, mean": -0.0823, "Call": "inactive"}
{"gene symbol": "Mcoln2", "reagent no.": 6, "TNF reporter z-score, mean": -1.35, "Call": "inactive"}

Entries above whose gene name starts with D or d:
{"gene symbol": "Dock2", "reagent no.": 1, "TNF reporter z-score, mean": -2.77, "Call": "active"}
{"gene symbol": "Dock2", "reagent no.": 2, "TNF reporter z-score, mean": -3.65, "Call": "active"}
{"gene symbol": "Dock2", "reagent no.": 3, "TNF reporter z-score, mean": -4.08, "Call": "active"}
{"gene symbol": "Dock2", "reagent no.": 4, "TNF reporter z-score, mean": 2.32, "Call": "active"}
{"gene symbol": "Dock2", "reagent no.": 5, "TNF reporter z-score, mean": 1.53, "Call": "inactive"}
{"gene symbol": "Dock2", "reagent no.": 6, "TNF reporter z-score, mean": 0.0234, "Call": "inactive"}

Further records follow:
{"gene symbol": "1700010I14Rik", "reagent no.": 1, "TNF reporter z-score, mean": 1.66, "Call": "inactive"}
{"gene symbol": "1700010I14Rik", "reagent no.": 2, "TNF reporter z-score, mean": -3.48, "Call": "active"}
{"gene symbol": "1700010I14Rik", "reagent no.": 3, "TNF reporter z-score, mean": -4.26, "Call": "active"}
{"gene symbol": "1700010I14Rik", "reagent no.": 4, "TNF reporter z-score, mean": 2.27, "Call": "active"}
{"gene symbol": "1700010I14Rik", "reagent no.": 5, "TNF reporter z-score, mean": 2.35, "Call": "active"}
{"gene symbol": "1700010I14Rik", "reagent no.": 6, "TNF reporter z-score, mean": 1.38, "Call": "inactive"}
{"gene symbol": "Eif3i", "reagent no.": 1, "TNF reporter z-score, mean": 4.25, "Call": "active"}
{"gene symbol": "Eif3i", "reagent no.": 2, "TNF reporter z-score, mean": -0.728, "Call": "inactive"}
{"gene symbol": "Eif3i", "reagent no.": 3, "TNF reporter z-score, mean": -4.56, "Call": "active"}
{"gene symbol": "Eif3i", "reagent no.": 4, "TNF reporter z-score, mean": -2.08, "Call": "active"}
{"gene symbol": "Eif3i", "reagent no.": 5, "TNF reporter z-score, mean": -3.69, "Call": "active"}
{"gene symbol": "Eif3i", "reagent no.": 6, "TNF reporter z-score, mean": -4.7, "Call": "active"}
{"gene symbol": "Cd209c", "reagent no.": 1, "TNF reporter z-score, mean": -2.26, "Call": "active"}
{"gene symbol": "Cd209c", "reagent no.": 2, "TNF reporter z-score, mean": -3.61, "Call": "active"}
{"gene symbol": "Cd209c", "reagent no.": 3, "TNF reporter z-score, mean": -4.77, "Call": "active"}
{"gene symbol": "Cd209c", "reagent no.": 4, "TNF reporter z-score, mean": 0.761, "Call": "inactive"}
{"gene symbol": "Cd209c", "reagent no.": 5, "TNF reporter z-score, mean": 0.497, "Call": "inactive"}
{"gene symbol": "Cd209c", "reagent no.": 6, "TNF reporter z-score, mean": -0.442, "Call": "inactive"}
